Measurements reported in PubChem BioAssay AID504804 (Drosophila RNAi Screening Center, 2011).

Assay: 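Knock-downs shielding fly cells from apoptosis caused by DNA damage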 (primary screen)
Cell system: Drosophila Kc cells
Reagents: long dsRNA against Drosophila genes, 0.5 µg dsRNA per well
Duration: 96 h (48 h knock-down, then 48 h drug)
Conditions: doxorubicin 5 µg/ml for 48 h, added 48 h after dsRNA
Measured: 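Viability measured as cellular ATP by luminescence after 48 h knock-down then 48 h doxorubicin at 5 µg/ml; unnormalised plate counts for each replicate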
Scale: raw ATP luminescence: higher = more viable cells, protection from doxorubicin
Active means: 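Active when both duplicate wells lie at least 2 SD above the plate mean and protection is confirmed by rescreening and independent dsRNAs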
In all, the deposit lists about 19,000 reagents; this is an unselected part of those with a known target gene and a result. Of all reagents, 47 (0.25%) were called active. 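Signals are raw, not normalised; exact z-scores behind calls not deposited; actives needed confirmation, so some wells reaching 2 SD are inactive.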 Entries without a mark were called inactive. Names joined by + are all predicted targets of the reagent. No sequences are given here.

target gene	PubChem SID	SD above plate mean	raw ATP luminescence, replicate 1	raw ATP luminescence, replicate 2
CG5180 (GeneID 192508)	SID104195523		46270	51140
mEFTs (GeneID 35060)	SID104182745		1.06e5	68517
CG4116 (GeneID 31291)	SID104198140		55410	61530
CG7255 (GeneID 39662)	SID104190582		30853	18587
hoip (GeneID 44173)	SID104183338		15607	18497
CG42813 + CG42814	SID104195732		53200	32510
CG9988 (GeneID 43388)	SID104196379		63730	44900
CG13026 (GeneID 39868)	SID104189698		68690	47397
CG12637 (GeneID 31996)	SID104197637		3.26e5	2.91e5
CG2926 (GeneID 40676)	SID104192113		60847	26703
CG3699 (GeneID 31046)	SID104197963		51150	21740
CG3699 (GeneID 31046)	SID104198434		68140	49280
LeuRS (GeneID 326262)	SID104180373		22090	25870
CG14877 (GeneID 41929)	SID104194793		73860	1.07e5
CG13743 (GeneID 35911)	SID104184931		1.29e5	1.23e5
CG13743 (GeneID 35911)	SID104186206		40413	56477
CNPYb (GeneID 40084)	SID104189637		20410	22747
CG31191 (GeneID 42477)	SID104193247		2.11e5	2.41e5
CG31191 (GeneID 42477)	SID104195006		46640	68200
CG31191 (GeneID 42477)	SID104195007		20310	26590
scw (GeneID 46000)	SID104181503		2.52e5	2.51e5
scw (GeneID 46000)	SID104201044		2.98e5	3.13e5
CG18870 (GeneID 59218)	SID104184105		64850	62707
nito (GeneID 35756)	SID104185735		57670	53230
CG7497 (GeneID 39966)	SID104190649		35903	30053
HLH3B (GeneID 31249)	SID104198461		44380	56650
tow (GeneID 38755)	SID104189984		37220	45157
CG31465 (GeneID 42577)	SID104195882		53730	50747
CG10077 (GeneID 38756)	SID104189483		43017	40940
chk (GeneID 35578)	SID104184786		87720	62503
CG34404 (GeneID 41873)	SID104195127		88900	1.11e5
CG34404 (GeneID 41873)	SID104195770		48913	19417
CG42663 (GeneID 36403)	SID104186196		2.14e5	2.23e5
PolD3 (GeneID 34892)	SID104181753		96157	69420
CG31038 (GeneID 43535)	SID104196118		58960	45980
CG31038 (GeneID 43535)	SID104196119		65390	34190
CG3841 (GeneID 34278)	SID104182522		40660	83813
MED6 (GeneID 44728)	SID104196292		55970	30560
Cand1 (GeneID 34403)	SID104181784		92897	55583
Muc68D (GeneID 39326)	SID104190361		45117	41933
Naxe (GeneID 31944)	SID104198043		3.16e5	3.32e5
robl37BC (GeneID 35166)	SID104182264		46283	34727
CG32354 (GeneID 50302)	SID104190555		39710	30147
CG32354 (GeneID 50302)	SID104190567		84860	94053
CG12782 (GeneID 37685)	SID104183919		39253	46100
CG6813 (GeneID 41396)	SID104195914		69607	67557
CARPB (GeneID 31915)	SID104198230		3.58e5	3.71e5
Corin (GeneID 35691)	SID104186610		40297	70163
CG16781 (GeneID 31315)	SID104197909		56360	44740
bgm (GeneID 44117)	SID104183287		41823	42280
Ubc2 (GeneID 34487)	SID104180929		2.84e5	3.00e5
Ubc2 (GeneID 34487)	SID104183260		40547	64320
CG14866 (GeneID 41854)	SID104194781		90460	93670
CG8187 (GeneID 36720)	SID104186891		54443	70897
salr (GeneID 34568)	SID104183399		44297	81707
CG9503 (GeneID 32424)	SID104199978		4.05e5	3.21e5
CG34283 (GeneID 5740817)	SID104193105		1.95e5	1.95e5
Lasp (GeneID 39864)	SID104190171		96440	61020
Eip74EF (GeneID 39962)	SID104190405		14353	14693
Eip74EF (GeneID 39962)	SID104190952		55677	52060
CG31064 (GeneID 43277)	SID104194548		55480	66640
CG31064 (GeneID 43277)	SID104195733		56590	31730
CG31064 (GeneID 43277)	SID104195734		51370	34910
CG31064 (GeneID 43277)	SID104195735		36520	30010
CG17085 (retired record) (GeneID 34501)	SID104182357		41367	90190
CG17085 (retired record) (GeneID 34501)	SID104182358		36003	70630
alien (GeneID 34225)	SID104183274		70330	58780
CG13970 (GeneID 2768911)	SID104182103		56067	68503
apt (GeneID 37734)	SID104184463		47200	51223
CG11570 (GeneID 39357)	SID104189636		94087	94387
Cyp316a1 (GeneID 38840)	SID104190922		90163	86143
Cpr97Eb (GeneID 43259)	SID104194915		62150	51200
so (GeneID 35662)	SID104187485		53920	64853
synr (GeneID 33702)	SID104182161		28360	36600
Rab3-GAP (GeneID 34626)	SID104181793		1.09e5	85220
tos (GeneID 35119)	SID104183416		68793	62053
CG10055 (GeneID 40862)	SID104192295		74287	65520
beat-IIIb (GeneID 35031)	SID104182227		79823	77747
CG5687 (GeneID 38255)	SID104188360		52353	55590
neur (GeneID 41085)	SID104196805	at least 2 SD above plate mean (active)	88603	46077
Trissin (GeneID 41890)	SID104194786		83350	64420
dpr7 (GeneID 2768865)	SID104196901		2.24e5	1.93e5
TM4SF (GeneID 37786)	SID104184453		51847	45240
Lcp65Ac (GeneID 38708)	SID104191002		90817	82427

5 entries from above, reformatted:
CG31465 (GeneID 42577) [SID104195882]
- raw ATP luminescence, replicate 1: 53730
- raw ATP luminescence, replicate 2: 50747

CG10077 (GeneID 38756) [SID104189483]
- raw ATP luminescence, replicate 1: 43017
- raw ATP luminescence, replicate 2: 40940

chk (GeneID 35578) [SID104184786]
- raw ATP luminescence, replicate 1: 87720
- raw ATP luminescence, replicate 2: 62503

CG34404 (GeneID 41873) [SID104195127]
- raw ATP luminescence, replicate 1: 88900
- raw ATP luminescence, replicate 2: 1.11e5

CG34404 (GeneID 41873) [SID104195770]
- raw ATP luminescence, replicate 1: 48913
- raw ATP luminescence, replicate 2: 19417
